The data set can be described thus: in situ perfusion method of the rectum (perfusate recirculated through the rat rectum; drug remaining in the perfusate).

The source of these data is patent publication EP0031561B1, “A rectally administered suppository comprising a drug and an adjuvant” (Merck & Co., Inc., priority 1979, dated 1981).

On to `CCN(CC)CC(=O)Nc1c(C)cccc1C` [lidocaine, 2-(Diethylamino)-N-(2,6-dimethyl-phenyl)acetamide], for which the “effect of sodium salicylate on the absorption of lidocaine” value (Figures 2 and 3, amount absorbed against time and pH, particularly evident below a pH of 7.0) is “accelerating effect”. Besides, the “absorption rate in the presence of the salicylate or its acidic form” value (below a pH of 6.0, appears to increase at the lower pH values) is on record as “substantial”. For the setting “below a pH of 6.0, no adjuvant”, the “rate of absorption of the drug by itself” value is listed as “approaches zero”.
